Laboratory results taken from PMC9675287.
No constants are given. Whether binding was seen depends on the method and setting. Some entries that bind do so weakly or less than the wild type.

Protein sequences, listed by entry. Tags and fused reporters are not part of them. Residues count along the entry.
UniProt P05113, residues 20-134: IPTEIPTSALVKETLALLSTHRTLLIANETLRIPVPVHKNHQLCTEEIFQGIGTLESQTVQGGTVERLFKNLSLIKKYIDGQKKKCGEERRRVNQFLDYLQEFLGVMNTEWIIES

Molecular target: T1, IL-5R on HEK 293T-IL-5R stable cells (UniProt Q01344)
T1 sequence: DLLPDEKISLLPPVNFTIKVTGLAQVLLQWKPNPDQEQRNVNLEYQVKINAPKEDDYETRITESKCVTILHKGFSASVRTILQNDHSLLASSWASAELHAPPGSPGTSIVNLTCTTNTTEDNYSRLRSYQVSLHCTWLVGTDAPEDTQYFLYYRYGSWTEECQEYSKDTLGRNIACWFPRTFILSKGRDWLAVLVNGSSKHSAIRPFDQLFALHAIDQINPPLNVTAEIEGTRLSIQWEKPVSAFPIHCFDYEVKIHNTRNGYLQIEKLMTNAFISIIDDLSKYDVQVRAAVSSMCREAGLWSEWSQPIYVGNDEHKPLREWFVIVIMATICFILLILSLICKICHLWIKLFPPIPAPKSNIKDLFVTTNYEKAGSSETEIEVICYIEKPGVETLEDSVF
Assay: flow cytometry on cells; HEK 293T-IL-5R stable cells incubated with purified biotin-labelled IL-5-Fc and a gradient of IL-5 Nbs or Nucala analogue; stained with streptavidin-PE; MFI read by FACS; only the binder purified

binding: binds
Substance: human IL-5-Fc (from UniProt P05113 20-134) (Fc fusion)
